For 1 substance, binding results are on record in publication PMC11833080.

Sequences of proteins named here, by UniProt entry; tags and fusion partners are left off.
UniProt O76083: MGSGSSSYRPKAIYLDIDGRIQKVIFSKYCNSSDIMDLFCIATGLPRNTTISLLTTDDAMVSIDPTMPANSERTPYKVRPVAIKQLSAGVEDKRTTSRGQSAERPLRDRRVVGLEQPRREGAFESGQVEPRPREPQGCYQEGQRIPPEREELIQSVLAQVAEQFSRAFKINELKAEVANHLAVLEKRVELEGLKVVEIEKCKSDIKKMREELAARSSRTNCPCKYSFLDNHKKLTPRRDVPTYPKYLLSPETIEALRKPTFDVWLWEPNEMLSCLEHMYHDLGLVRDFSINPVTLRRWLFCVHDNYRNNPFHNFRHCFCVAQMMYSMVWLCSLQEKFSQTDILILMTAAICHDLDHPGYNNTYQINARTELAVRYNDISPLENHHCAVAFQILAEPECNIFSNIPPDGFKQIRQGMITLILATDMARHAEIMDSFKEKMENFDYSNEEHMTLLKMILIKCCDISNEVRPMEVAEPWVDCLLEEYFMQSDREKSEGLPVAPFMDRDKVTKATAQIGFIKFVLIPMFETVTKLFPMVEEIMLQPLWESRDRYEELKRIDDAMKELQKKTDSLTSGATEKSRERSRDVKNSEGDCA
UniProt Q9UNE7: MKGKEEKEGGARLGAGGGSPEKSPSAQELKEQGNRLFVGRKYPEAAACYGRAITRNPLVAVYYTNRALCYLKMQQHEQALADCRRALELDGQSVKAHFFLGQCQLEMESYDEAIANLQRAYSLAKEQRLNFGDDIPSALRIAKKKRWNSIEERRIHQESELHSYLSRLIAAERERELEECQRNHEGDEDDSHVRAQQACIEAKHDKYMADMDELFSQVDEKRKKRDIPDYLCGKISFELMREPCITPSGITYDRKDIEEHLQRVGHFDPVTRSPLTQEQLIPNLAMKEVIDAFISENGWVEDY

The target in the assay is V5-His-PDE9A (phosphodiesterase 9A) (human) (UniProt O76083). The experiment in a line: co-IP; HEK293T cells transfected with plasmids; NP-40 lysis buffer; lysate precleared with Protein A+G magnetic beads; immunoprecipitation with V5-rabbit antibody (10 µg), 4 °C; western blot with Flag-mouse antibody.

These are yes or no findings as the source states them, for the method shown. Binding seen in cells or lysates may run through a third protein. Some entries that bind do so weakly or less than the wild type.

“Flag-CHIP (carboxyl terminus of Hsc70-interacting protein, STUB1), wild type (from UniProt Q9UNE7 1-303) (enzyme)”: the binding entry is “binds”.
